Measured values as given in patent publication US11241480B2, “Methods for modulation of dietary and microbial exposure with compositions comprising an EGFR ligand” (Washington University, priority 2017, dated 2022).
Entries after “also recorded” stand apart in the source; their conditions may differ. At least one compound was matched to its structure with a doubt left.

Tested on: goblet cell associated antigen passages (GAPs)
Test: Enumeration of goblet cell associated antigen passages (GAPs) in SI and colon by in vivo two-photon imaging and fixed sections
Design: species or system mice
Protocol: Intravital two-photon (2P) microscopy: Mice were anesthetized using nebulized isofluorane in 95% O2/5% CO2. Intravital preparation of the intestine was performed as previously described. To detect GAPs, lysine fixable fluorescently-labeled dextran 10,000 MW (10 mg/mL) and diamidino-2-phenylindole (DAPI; 10 mg/mL) were injected intraluminally 20 minutes prior to imaging, and imaging was performed for up to one hour. To detect paracellular leak fluorescently labeled dextran 3,000 MW (10 mg/mL) and DAPI (10 mg/mL) were injected intraluminally 20 minutes prior to imaging. To detect the extension of trans-epithelial dendrites by APCs, CD11c^YFP or CX3CR1^GFP were imaged as above using 10,000 MW fluorescent dextran to outline the epithelial surface. Tissues were excited using a Ti:sapphire laser tuned to 890 nm (Chameleon X R, Coherent). Time-lapse imaging was performed with a custom-built 2P microscope running ImageWarp acquisition software (A&B Software, New London, Conn.). Epithelial integrity was assessed by dextran and DAPI staining as described. Following imaging, tissues were placed in 10% formalin buffered phosphate solution (Fisher Scientific) to fix dextrans in place to confirm 2P findings and for further analysis by immunofluorescence microscopy.
In some experiments mice were treated with 150 μg/kg carbachol chloride i.p. 10 minutes before dextran, 100 mg/kg tropicamide (mAChR4 selective antagonist) i.p. 20 minutes before dextran, 500 μg/kg tyrphostin AG1478 (inhibitor of EGFR phosphorylation) i.p. 20 minutes before dextran, 10 mg/kg U-0126 (inhibitor of p42/p44 MAPK phosphorylation) i.p. 20 minutes before dextran, 1-1000 ng EGF (Shenandoah Biotechnologies) injected intraluminally 20 minutes before dextran, 10 μg LPS injected intraluminally 20 minutes before dextran, or 100 μl stomach contents from a DOL 10 mice, or 100 μl heat killed cecal contents from SPF housed adult mice injected intraluminally 20 minutes before dextran was administered. All reagents from Sigma Aldrich, St. Louis, Mo. unless otherwise noted.
Enumeration of GAPs: GAPs were identified as dextran-filled columns measuring approximately 20 μm (height)×5 μm (diameter) traversing the epithelium and containing a nucleus. GAPs were enumerated in the jejunum or mid-transverse colon using Z-stack images of a volume of 225 μm(x) by 250 μm(y) by 50 μm(z) acquired during in vivo 2P imaging as described above. SI GAPs were enumerated as GAPs per villus. When present, colonic GAPs were found on both the surface epithelium and within the crypts, but were enumerated as GAPs per crypt due to difficulty in distinguishing dextran filled GAPs from luminal dextran during in vivo imaging. De-identified and coded video clips were evaluated by a blinded investigator to enumerate GAPS in early life. The number of GAPs per villus and GAPs per crypt seen by 2P imaging were confirmed by immunofluorescence microscopy of tissues that were fixed following 2P imaging. To quantify GAPs per GC, lysine fixable 10,000 MW fluorescent dextran was injected into the lumen and intestines harvested 25 min later. Tissues were fixed with 10% formalin buffered saline for 45 min, sectioned, and stained with antibodies directed against cyt18. GCs were identified cyt18+ epithelial cells with GC morphology and GAPs as dextran containing epithelial cells defined as above.
Intravital two-photon (2P) microscopy: Mice were anesthetized using nebulized isofluorane in 95% O2/5% CO2. Intravital preparation of the intestine was performed as previously described. To detect GAPs, tetramethylrodamine labeled dextran 10,000 MW (10 mg/mL) or fluorescein labeled dextran 10,000 MW (10 mg/mL) and diamidino-2-phenylindole (DAPI; 10 mg/mL) were injected intraluminally 20 minutes prior to imaging and imaging was performed for up to one hour. Tissues were excited using a Ti:sapphire laser tuned to 890 nm (Chameleon XR, Coherent). […]

## C[N+](C)(C)CCOC(N)=O [CCh, carbamylcholine]
DOL 8 mice (neonatal phase)
  GAP formation in SI and colon: does not induce SI or colonic GAPs; also recorded: did not form GAPs
DOL 14 mice (post-neonatal phase)
  SI GAP formation: relatively unresponsive
DOL 14 mice (post-neonatal phase), wildtype
  colonic GAP formation / dextran uptake by colonic epithelial cells: responsive to CCh to form GAPs
DOL 15 mice
  SI GAP formation: relatively unresponsive
  colonic GAP formation: formed robustly
DOL 28, post weaning
  SI GAP formation: responding to CCh; also recorded: increasing GAPs
  colonic GAP formation: unresponsive to CCh
post-weaning mice with deletion of Myd88 in GCs
  colonic GAP formation: further induced
